Experimental data: PubChem BioAssay AID1259308 (NCATS, 2017)
Purpose: 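Knock-downs that increase output of a recombinant reporter protein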 (primary screen). System: human HEK293 embryonic kidney cells stably expressing firefly luciferase (HEK-CMV-Luc2-Hygro). Reagents: single siRNA against human genes, 0.8 pmol siRNA per well. Timing: 72 h. Measurement: 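Reporter luminescence and viable-cell signal on separate replicate plates, given as percent of non-targeting control and median/MAD z-scores, plus per-cell luciferase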. Direction: total luciferase, z-score and total luciferase, % of control: higher = more reporter protein produced; luciferase per cell, z-score: higher = more reporter output per viable cell; viable cells, % of control: higher = more viable cells. Active means: 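Active when the median/MAD z-score for overall luciferase is greater than 3; a gene was taken forward for validation with new siRNAs if at least two of its three siRNAs passed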. Meaning of the calls: active = raised luciferase; inactive = no rise.
Shown is an unselected part of about 59,000 reagents tested. Over the whole deposit, about 1,510 (2.6%) are marked active. 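Calls use total luciferase alone and ignore viability, so some active siRNAs may act by altering cell number.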 No sequences are given here.

Target gene | PubChem SID | total luciferase, z-score | total luciferase, % of control | luciferase per cell, z-score | viable cells, % of control | Outcome
NR1I3 | SID160723578 | -1.09 | 60.1 | -0.196 | 70.7 | inactive
NR1I3 | SID160723579 | -1.16 | 58.8 | -1.3 | 92.4 | inactive
NR1I3 | SID160723581 | -0.39 | 74.1 | -0.866 | 104 | inactive
STAG1 | SID160728049 | -0.0902 | 80.1 | -0.441 | 101 | inactive
STAG1 | SID160728050 | 0.753 | 96.9 | 0.045 | 107 | inactive
STAG1 | SID160728051 | -0.0614 | 80.7 | -0.553 | 104 | inactive
PCDHA2 | SID160744886 | 0.674 | 95.3 | 0.226 | 100 | inactive
PCDHA2 | SID160744887 | 0.325 | 88.4 | 0.247 | 92.5 | inactive
PCDHA2 | SID160744888 | 0.923 | 100 | 0.57 | 96.4 | inactive
FOXD4L6 | SID160726391 | 2.4 | 130 | 2.26 | 79.9 | inactive
FOXD4L6 | SID160726392 | 0.996 | 102 | 0.785 | 92.4 | inactive
FOXD4L6 | SID160770999 | 2.46 | 131 | 3.37 | 60.1 | inactive
NEMP1 | SID160735965 | 0.06 | 83.1 | -0.62 | 109 | inactive
NEMP1 | SID160735966 | -2.65 | 29.1 | -4.45 | 105 | inactive
NEMP1 | SID160735968 | -1.01 | 61.9 | -0.521 | 79.3 | inactive
ATR | SID160767077 | -0.25 | 76.9 | -0.227 | 91.3 | inactive
ATR | SID160767180 | -0.675 | 68.5 | -0.536 | 88.1 | inactive
ATR | SID160767283 | 0.164 | 85.2 | 0.647 | 80.3 | inactive
H1-2 | SID160723828 | -0.459 | 72.8 | 0.644 | 68.6 | inactive
H1-2 | SID160723829 | 3.08 | 143 | 2.55 | 81.7 | active
H1-2 | SID160774790 | -0.469 | 72.6 | -0.566 | 94.1 | inactive
TPD52L2 | SID160718272 | -0.743 | 67.1 | 0.174 | 71.6 | inactive
TPD52L2 | SID160718273 | 2.01 | 122 | 3.1 | 60.2 | inactive
TPD52L2 | SID160718274 | -0.698 | 68 | -0.442 | 85.4 | inactive
ARHGDIG | SID160719968 | -0.972 | 62.5 | -1.37 | 100 | inactive
ARHGDIG | SID160719978 | -1.28 | 56.5 | -1.36 | 90.2 | inactive
ARHGDIG | SID160719989 | 0.949 | 101 | 0.58 | 96.6 | inactive
GMCL1 | SID160747709 | 0.0506 | 82.9 | 0.106 | 90.1 | inactive
GMCL1 | SID160747710 | -0.117 | 79.6 | -0.136 | 92.2 | inactive
GMCL1 | SID160747711 | 0.584 | 93.5 | 0.346 | 95.4 | inactive
TNFRSF21 | SID160738587 | -0.21 | 77.7 | -0.583 | 101 | inactive
TNFRSF21 | SID160738588 | -1.35 | 55 | -0.722 | 74.4 | inactive
TNFRSF21 | SID160738589 | 1.18 | 105 | 1.25 | 84.8 | inactive
RPS10P30 | SID160725110 | -0.311 | 75.7 | 0.586 | 72.5 | inactive
RPS10P30 | SID160733110 | -1.94 | 43.4 | -1.56 | 73.1 | inactive
RPS10P30 | SID160764741 | -0.759 | 66.8 | 0.998 | 57.4 | inactive
MTDH | SID160754196 | -0.374 | 74.4 | -0.467 | 94.1 | inactive
MTDH | SID160754197 | 0.848 | 98.7 | 0.729 | 91.1 | inactive
MTDH | SID160754198 | -0.84 | 65.2 | -0.286 | 78.5 | inactive
FGF3 | SID160723760 | 0.389 | 89.6 | 0.542 | 86.8 | inactive
FGF3 | SID160723762 | -0.143 | 79 | 0.331 | 81 | inactive
FGF3 | SID160765020 | 0.0606 | 83.1 | -0.192 | 97.7 | inactive
SDHAF4 | SID160757398 | 0.2 | 85.9 | -0.0533 | 97.3 | inactive
SDHAF4 | SID160757399 | 0.307 | 88 | 1.35 | 68.9 | inactive
SDHAF4 | SID160757400 | 1.61 | 114 | 1.22 | 92.3 | inactive
LRP5 | SID160776736 | 1.04 | 103 | 1.23 | 82.9 | inactive
LRP5 | SID160776737 | 1.81 | 118 | 2.33 | 71.2 | inactive
LRP5 | SID160776738 | 0.97 | 101 | 1.73 | 71.7 | inactive
IGFBP5 | SID160775639 | -0.332 | 75.3 | -0.472 | 95.3 | inactive
IGFBP5 | SID160775640 | -1.46 | 52.9 | -0.475 | 67.1 | inactive
IGFBP5 | SID160775641 | -2.24 | 37.3 | -2.36 | 77.4 | inactive
MRAS | SID160731373 | -0.0195 | 81.5 | -0.252 | 97.3 | inactive
MRAS | SID160731381 | -0.938 | 63.2 | -0.624 | 83.3 | inactive
MRAS | SID160731390 | -0.435 | 73.2 | -0.103 | 84.1 | inactive
LOC283788 | SID160763041 | 1.19 | 106 | 1.03 | 90.1 | inactive
LOC283788 | SID160763043 | 0.236 | 86.6 | -0.133 | 100 | inactive
LOC283788 | SID160763044 | 0.27 | 87.3 | 0.471 | 86.1 | inactive
GOSR1 | SID160722419 | 1.21 | 106 | 0.837 | 95 | inactive
GOSR1 | SID160722421 | -2.28 | 36.6 | -1.08 | 54.4 | inactive
GOSR1 | SID160732197 | 0.451 | 90.9 | 0.89 | 80.3 | inactive
SLC16A5 | SID160721517 | 0.643 | 94.7 | 0.168 | 101 | inactive
SLC16A5 | SID160721518 | 0.169 | 85.3 | 0.644 | 80.4 | inactive
SLC16A5 | SID160721519 | 0.0404 | 82.7 | -0.198 | 97.3 | inactive
WBP1L | SID160742282 | 0.0544 | 83 | 0.432 | 82.7 | inactive
WBP1L | SID160742283 | 0.488 | 91.6 | -0.0687 | 104 | inactive
WBP1L | SID160742284 | 0.542 | 92.7 | 0.279 | 96.2 | inactive
WARS2 | SID160728240 | -1.19 | 58.2 | -1.5 | 96.6 | inactive
WARS2 | SID160728241 | 0.164 | 85.1 | 0.242 | 89.3 | inactive
WARS2 | SID160728242 | -0.158 | 78.7 | -0.55 | 102 | inactive
ZDHHC7 | SID160743934 | 1.53 | 112 | 1.4 | 86.9 | inactive
ZDHHC7 | SID160743936 | 0.049 | 82.9 | -0.573 | 108 | inactive
ZDHHC7 | SID160743937 | -1.76 | 46.9 | -1.57 | 79.3 | inactive
LINC01750 | SID160768855 | 0.426 | 90.4 | 0.174 | 96.5 | inactive
LINC01750 | SID160768856 | -0.936 | 63.3 | -0.767 | 86.5 | inactive
LINC01750 | SID160768857 | 0.197 | 85.8 | -0.0981 | 98.4 | inactive

Entries listed so far whose target name begins with S or s:
Target gene | PubChem SID | total luciferase, z-score | total luciferase, % of control | luciferase per cell, z-score | viable cells, % of control | Outcome
STAG1 | SID160728049 | -0.0902 | 80.1 | -0.441 | 101 | inactive
STAG1 | SID160728050 | 0.753 | 96.9 | 0.045 | 107 | inactive
STAG1 | SID160728051 | -0.0614 | 80.7 | -0.553 | 104 | inactive
SDHAF4 | SID160757398 | 0.2 | 85.9 | -0.0533 | 97.3 | inactive
SDHAF4 | SID160757399 | 0.307 | 88 | 1.35 | 68.9 | inactive
SDHAF4 | SID160757400 | 1.61 | 114 | 1.22 | 92.3 | inactive
SLC16A5 | SID160721517 | 0.643 | 94.7 | 0.168 | 101 | inactive
SLC16A5 | SID160721518 | 0.169 | 85.3 | 0.644 | 80.4 | inactive
SLC16A5 | SID160721519 | 0.0404 | 82.7 | -0.198 | 97.3 | inactive
